Measurements from publication PMC7280298.
No constants are given. Whether binding was seen depends on the method and setting. Binding seen in cells or lysates may run through a third protein. Some results given as binding are weak or reduced against the parent protein; the word gives no strength. Tags and fused reporters may be left off the sequences shown.

Target: T1, 9xMyc-NRP1 (NAP1-RELATED PROTEIN 1, N-terminally 9xMyc-tagged) (Arabidopsis) (UniProt Q9CA59)
T1 sequence: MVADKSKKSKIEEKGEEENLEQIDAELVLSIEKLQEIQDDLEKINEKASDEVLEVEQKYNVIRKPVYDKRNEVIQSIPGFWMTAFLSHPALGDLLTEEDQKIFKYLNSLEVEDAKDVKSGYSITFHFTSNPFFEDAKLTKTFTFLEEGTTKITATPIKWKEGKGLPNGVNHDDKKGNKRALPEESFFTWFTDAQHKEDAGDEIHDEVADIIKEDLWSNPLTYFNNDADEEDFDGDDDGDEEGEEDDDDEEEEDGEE
Experiment: co-IP; F1 lines expressing both NRP2-3xFlag and 9xMyc-NRP1; anti c-Myc magnetic beads; IP buffer, overnight at 4 °C; western blot

binding: binds
B1: NRP2-3xFlag (NAP1-RELATED PROTEIN 2, C-terminally 3xFlag-tagged) (protein, UniProt Q8LC68 1-255)
chain: MVTDKSKKAKTEEENVEQIDAELVLSIEKLQEIQDDLEKINEKASDEVLEVEQKYNVIRKPVYDKRNEIIKTIPDFWLTAFLSHPALGELLTEEDQKIFKYLSSLDVEDAKDVKSGYSITFSFNPNPFFEDGKLTKTFTFLEEGTTKITATPIKWKEGKGLANGVNHEKNGNKRALPEESFFTWFSDAQHKEDVEDEMQDEVADIIKEDLWPNPLTYFNNDADEEDFDGDDDGDEEEKEGDSDEDDDEEDEVGEE
